We go through 16 substances from PMC4942636.

Sequences of proteins named here, by UniProt entry; tags and fusion partners are left off.
UniProt P0DMV8: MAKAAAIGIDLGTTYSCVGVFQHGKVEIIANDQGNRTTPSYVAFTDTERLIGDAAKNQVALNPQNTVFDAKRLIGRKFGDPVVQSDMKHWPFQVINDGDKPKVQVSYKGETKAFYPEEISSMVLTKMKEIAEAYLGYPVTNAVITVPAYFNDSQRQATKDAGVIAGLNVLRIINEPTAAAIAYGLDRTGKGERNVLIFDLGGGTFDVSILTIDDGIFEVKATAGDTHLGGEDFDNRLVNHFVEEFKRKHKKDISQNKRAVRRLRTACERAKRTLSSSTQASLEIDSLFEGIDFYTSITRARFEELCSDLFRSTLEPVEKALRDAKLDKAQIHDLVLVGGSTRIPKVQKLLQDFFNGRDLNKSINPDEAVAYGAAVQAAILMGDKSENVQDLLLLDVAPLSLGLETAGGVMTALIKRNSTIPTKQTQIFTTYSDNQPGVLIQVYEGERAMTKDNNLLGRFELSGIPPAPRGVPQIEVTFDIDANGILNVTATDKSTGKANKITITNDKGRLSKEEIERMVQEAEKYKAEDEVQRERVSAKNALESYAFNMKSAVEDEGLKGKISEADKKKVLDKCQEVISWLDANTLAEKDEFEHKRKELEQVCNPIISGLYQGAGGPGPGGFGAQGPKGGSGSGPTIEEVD
UniProt P11142: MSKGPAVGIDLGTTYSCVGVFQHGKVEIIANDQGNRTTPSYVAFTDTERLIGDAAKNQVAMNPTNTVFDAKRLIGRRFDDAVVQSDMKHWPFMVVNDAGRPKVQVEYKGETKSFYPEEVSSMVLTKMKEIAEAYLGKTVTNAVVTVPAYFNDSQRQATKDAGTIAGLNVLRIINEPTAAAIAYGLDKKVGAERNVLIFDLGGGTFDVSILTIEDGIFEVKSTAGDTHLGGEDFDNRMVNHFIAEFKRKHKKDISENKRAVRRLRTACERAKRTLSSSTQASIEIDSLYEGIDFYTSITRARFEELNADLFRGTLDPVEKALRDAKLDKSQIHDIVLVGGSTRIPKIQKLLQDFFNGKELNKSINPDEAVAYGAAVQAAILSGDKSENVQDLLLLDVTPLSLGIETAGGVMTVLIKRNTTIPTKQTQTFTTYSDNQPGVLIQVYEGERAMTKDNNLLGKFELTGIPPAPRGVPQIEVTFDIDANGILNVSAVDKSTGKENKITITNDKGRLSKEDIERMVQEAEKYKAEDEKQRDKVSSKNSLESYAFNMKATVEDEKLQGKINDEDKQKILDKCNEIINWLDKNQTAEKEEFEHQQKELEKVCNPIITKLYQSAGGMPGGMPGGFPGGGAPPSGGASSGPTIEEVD
UniProt P08238: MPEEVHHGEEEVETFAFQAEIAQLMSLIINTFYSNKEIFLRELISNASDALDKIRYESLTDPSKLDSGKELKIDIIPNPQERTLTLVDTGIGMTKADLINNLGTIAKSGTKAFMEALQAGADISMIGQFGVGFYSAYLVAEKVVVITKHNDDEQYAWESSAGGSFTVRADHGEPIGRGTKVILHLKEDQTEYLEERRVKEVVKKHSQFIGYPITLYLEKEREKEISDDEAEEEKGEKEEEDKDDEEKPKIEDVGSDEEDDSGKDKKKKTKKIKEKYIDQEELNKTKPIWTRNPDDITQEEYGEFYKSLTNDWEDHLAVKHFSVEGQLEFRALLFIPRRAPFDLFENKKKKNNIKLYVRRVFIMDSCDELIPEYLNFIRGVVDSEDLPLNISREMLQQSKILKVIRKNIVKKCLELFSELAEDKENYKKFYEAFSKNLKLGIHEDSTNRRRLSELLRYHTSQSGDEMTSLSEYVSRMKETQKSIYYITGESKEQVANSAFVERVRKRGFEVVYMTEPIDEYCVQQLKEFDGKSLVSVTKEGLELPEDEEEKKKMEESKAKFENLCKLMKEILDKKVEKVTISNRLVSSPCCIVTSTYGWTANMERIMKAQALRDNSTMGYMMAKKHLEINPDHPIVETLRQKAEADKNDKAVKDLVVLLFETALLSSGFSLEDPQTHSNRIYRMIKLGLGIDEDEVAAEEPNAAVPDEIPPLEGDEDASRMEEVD
UniProt P09874: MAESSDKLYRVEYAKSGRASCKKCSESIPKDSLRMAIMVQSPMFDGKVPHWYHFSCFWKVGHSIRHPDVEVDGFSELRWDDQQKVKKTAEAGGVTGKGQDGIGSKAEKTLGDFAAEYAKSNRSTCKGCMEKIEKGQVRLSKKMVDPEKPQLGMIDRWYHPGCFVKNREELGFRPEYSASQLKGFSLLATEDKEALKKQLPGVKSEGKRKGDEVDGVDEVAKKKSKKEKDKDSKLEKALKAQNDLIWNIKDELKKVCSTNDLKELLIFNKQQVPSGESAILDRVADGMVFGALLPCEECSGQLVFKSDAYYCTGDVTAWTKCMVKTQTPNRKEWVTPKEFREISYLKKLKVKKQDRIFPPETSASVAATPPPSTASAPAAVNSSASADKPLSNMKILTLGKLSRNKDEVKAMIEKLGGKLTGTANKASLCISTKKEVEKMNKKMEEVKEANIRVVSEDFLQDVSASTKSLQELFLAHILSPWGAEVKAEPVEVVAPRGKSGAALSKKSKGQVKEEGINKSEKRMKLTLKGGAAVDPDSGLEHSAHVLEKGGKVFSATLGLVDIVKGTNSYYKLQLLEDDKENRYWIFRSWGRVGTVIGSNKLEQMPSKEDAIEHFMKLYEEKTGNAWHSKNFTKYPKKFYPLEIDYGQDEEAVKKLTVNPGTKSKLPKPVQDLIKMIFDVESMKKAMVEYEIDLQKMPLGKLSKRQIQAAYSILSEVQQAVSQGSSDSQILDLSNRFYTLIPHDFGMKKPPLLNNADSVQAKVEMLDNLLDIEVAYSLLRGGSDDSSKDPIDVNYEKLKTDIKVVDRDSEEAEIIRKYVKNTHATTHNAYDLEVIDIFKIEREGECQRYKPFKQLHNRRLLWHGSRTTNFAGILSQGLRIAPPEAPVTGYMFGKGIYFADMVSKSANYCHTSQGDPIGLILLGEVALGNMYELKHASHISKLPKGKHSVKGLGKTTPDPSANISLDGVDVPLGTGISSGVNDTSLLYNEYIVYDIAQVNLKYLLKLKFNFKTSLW
UniProt Q9UQR0: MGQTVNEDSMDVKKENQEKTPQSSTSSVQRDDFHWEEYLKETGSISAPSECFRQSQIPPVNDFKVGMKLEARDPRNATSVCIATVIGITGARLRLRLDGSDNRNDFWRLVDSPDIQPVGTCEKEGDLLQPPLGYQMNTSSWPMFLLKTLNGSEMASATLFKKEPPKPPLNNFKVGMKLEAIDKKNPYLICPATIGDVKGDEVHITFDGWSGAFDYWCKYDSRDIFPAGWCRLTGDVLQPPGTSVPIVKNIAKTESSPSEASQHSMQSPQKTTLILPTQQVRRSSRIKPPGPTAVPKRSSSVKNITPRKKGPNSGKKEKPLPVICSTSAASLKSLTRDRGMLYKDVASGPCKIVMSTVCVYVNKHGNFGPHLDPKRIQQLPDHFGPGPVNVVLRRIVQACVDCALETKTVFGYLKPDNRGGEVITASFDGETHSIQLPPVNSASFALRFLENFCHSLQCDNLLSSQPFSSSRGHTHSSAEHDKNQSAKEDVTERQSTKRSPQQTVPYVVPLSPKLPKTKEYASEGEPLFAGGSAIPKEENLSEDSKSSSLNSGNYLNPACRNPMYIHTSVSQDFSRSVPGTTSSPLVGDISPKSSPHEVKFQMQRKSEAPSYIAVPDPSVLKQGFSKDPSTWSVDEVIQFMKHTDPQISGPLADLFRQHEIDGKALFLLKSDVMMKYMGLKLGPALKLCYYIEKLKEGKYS
UniProt P12270: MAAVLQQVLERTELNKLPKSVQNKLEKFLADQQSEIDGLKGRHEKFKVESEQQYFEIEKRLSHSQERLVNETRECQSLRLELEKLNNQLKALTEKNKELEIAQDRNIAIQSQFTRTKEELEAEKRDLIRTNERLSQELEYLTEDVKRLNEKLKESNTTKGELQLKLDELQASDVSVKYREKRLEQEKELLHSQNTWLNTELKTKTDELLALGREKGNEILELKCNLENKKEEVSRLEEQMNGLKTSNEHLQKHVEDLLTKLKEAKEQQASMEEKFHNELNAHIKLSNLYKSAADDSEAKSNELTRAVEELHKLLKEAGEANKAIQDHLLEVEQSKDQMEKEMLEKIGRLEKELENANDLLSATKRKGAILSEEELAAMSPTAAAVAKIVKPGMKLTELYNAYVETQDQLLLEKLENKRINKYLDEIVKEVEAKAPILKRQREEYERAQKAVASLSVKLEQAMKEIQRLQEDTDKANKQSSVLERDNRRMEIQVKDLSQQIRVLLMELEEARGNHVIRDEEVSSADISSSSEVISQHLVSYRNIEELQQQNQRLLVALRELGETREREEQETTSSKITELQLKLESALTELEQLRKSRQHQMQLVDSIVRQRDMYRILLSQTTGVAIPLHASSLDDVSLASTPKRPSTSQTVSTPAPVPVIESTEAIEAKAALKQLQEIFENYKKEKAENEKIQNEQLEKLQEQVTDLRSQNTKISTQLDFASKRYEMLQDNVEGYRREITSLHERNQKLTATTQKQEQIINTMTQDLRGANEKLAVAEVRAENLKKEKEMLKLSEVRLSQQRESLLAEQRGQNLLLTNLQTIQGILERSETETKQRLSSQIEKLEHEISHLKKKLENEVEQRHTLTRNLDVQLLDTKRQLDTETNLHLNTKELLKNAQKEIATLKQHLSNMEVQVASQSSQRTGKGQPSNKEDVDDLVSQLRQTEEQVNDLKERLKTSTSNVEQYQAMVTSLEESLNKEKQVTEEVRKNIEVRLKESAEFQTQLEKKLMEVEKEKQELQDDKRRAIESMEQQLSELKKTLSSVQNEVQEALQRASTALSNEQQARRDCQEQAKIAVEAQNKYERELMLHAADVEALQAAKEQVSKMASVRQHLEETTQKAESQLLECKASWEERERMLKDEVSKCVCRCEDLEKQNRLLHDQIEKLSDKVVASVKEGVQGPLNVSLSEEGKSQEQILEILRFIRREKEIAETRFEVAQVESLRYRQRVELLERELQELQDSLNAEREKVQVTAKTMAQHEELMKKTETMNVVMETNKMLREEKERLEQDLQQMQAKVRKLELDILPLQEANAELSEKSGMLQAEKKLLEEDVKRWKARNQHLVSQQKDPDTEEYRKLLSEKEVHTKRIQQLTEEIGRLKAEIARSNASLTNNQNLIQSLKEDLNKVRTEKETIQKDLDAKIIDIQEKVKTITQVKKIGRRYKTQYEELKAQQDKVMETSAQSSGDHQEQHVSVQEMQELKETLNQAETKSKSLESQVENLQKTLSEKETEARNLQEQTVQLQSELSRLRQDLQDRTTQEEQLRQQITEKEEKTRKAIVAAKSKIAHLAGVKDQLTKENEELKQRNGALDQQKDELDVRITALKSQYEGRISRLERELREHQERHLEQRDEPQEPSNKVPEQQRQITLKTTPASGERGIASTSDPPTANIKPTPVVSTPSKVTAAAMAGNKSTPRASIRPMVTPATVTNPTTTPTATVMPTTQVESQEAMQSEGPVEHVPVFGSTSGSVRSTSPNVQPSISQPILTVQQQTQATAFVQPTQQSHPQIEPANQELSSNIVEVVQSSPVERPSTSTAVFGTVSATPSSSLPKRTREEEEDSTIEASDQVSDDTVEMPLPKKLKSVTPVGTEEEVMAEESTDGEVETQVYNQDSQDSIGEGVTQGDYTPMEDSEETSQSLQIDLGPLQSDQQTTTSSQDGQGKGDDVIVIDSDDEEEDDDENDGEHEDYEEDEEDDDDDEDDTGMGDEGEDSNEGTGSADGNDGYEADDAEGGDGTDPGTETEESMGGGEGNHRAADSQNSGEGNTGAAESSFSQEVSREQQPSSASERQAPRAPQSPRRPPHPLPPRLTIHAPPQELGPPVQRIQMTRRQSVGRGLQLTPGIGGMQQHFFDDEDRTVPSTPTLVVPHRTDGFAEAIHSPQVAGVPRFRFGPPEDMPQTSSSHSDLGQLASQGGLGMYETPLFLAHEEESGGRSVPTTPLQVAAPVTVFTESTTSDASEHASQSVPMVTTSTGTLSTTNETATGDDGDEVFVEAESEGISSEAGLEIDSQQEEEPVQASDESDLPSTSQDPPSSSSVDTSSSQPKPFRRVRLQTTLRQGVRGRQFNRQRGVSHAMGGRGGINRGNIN

The target of assay [1] is Myc-BirA*-Txnip (human) (UniProt Q9H3M7). Nature of the assay: proximity labelling; BioID: Myc-BirA*-Txnip or its C247S mutant stably expressed in HEK293, DMEM with 25 mM glucose and 50 uM biotin for 24 hrs; stringent lysis (0.4% SDS, 500 mM NaCl), biotinylated proteins captured on streptavidin Dynabeads, on-bead trypsin digestion, 1D LC-MS/MS; hits in at least 2 of 3 trials, parental HEK293 as control; also the high glucose arm of cells acclimated to low glucose.

Assay [2] has the same target. Nature of the assay: proximity labelling; BioID as a1, but BirA*-Txnip HEK293 cells acclimated to and cultured in low glucose (5.5 mM) with biotin; compared with high glucose (25 mM).
Assay [3] deals with T1, Myc-BirA*-Txnip C247S (human) (UniProt Q9H3M7).
T1 sequence: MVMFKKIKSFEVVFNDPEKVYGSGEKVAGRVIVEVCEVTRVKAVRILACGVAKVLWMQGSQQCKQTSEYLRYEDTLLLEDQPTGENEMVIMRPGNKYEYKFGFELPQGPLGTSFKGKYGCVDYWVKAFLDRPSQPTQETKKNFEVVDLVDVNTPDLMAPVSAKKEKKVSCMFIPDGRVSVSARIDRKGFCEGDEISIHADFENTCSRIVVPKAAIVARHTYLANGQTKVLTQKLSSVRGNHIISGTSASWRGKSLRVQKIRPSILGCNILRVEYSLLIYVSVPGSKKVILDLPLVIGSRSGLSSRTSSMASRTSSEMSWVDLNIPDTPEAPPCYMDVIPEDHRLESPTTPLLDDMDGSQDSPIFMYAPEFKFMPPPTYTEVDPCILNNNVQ
Nature of the assay: proximity labelling; BioID: Myc-BirA*-Txnip or its C247S mutant stably expressed in HEK293, DMEM with 25 mM glucose and 50 uM biotin for 24 hrs; stringent lysis (0.4% SDS, 500 mM NaCl), biotinylated proteins captured on streptavidin Dynabeads, on-bead trypsin digestion, 1D LC-MS/MS; hits in at least 2 of 3 trials, parental HEK293 as control; also the high glucose arm of cells acclimated to low glucose.

These are yes or no findings as the source states them, for the method shown. In cells and extracts the contact can be indirect. These calls come from enrichment with a bait or labelling near it, and not all partners need be listed. For some of these results: No binding means not detected with the bait. For some of these results: Where a sequence is shown, tags or fusion partners need not be part of it.

As for “Eukaryotic translation initiation factor 5 (from UniProt P55010 1-431)”, in the assay with Myc-BirA*-Txnip (human) [1], the binding result is “binds”. Take “Filamin-A, isoform 2 (from UniProt P21333-2)”: in the assay with Myc-BirA*-Txnip (human) [1], the binding entry is given as “binds”. For “Heat shock 70 kDa protein 1A/1B (from UniProt P0DMV8 1-641)”, the binding result in the assay with Myc-BirA*-Txnip (human) [2] is on record as “no binding (only culture in low glucose (5.5 mM))”; with Myc-BirA*-Txnip (human) [1] it was “binds”; in assay [3] it was “no binding”. As to “Heat shock cognate 71 kDa protein (from UniProt P11142 1-646)”, the figures for the binding result (with Myc-BirA*-Txnip (human) [1]; in assay [3]) were “binds” and “no binding”, respectively. On to “Heat shock protein HSP 90-beta (from UniProt P08238 1-724)”, for which the binding result with Myc-BirA*-Txnip (human) [2] is “no binding (only culture in low glucose (5.5 mM))”; with Myc-BirA*-Txnip (human) [1], “binds”; in assay [3] it was “no binding”.

Turning to “JmjC domain-containing histone demethylation protein 2C (from UniProt Q15652 1-2540)”, the binding result with Myc-BirA*-Txnip (human) [1] was “binds”. On the same count and under the same terms, as for “Neuroblast differentiation-associated protein AHNAK (from UniProt Q09666 1-5890)”, the entry is “binds”. Regarding “Nuclear mitotic apparatus protein 1 (from UniProt Q14980 1-2115)”, in the assay with Myc-BirA*-Txnip (human) [1], the binding entry is “binds”. Still for that read-out and setting: as for “Poly ADP-ribose polymerase 1 (from UniProt P09874 1-1014)”, the entry is “binds”. “Sex comb on midleg-like protein 2 (from UniProt Q9UQR0 1-700)”: the binding result with Myc-BirA*-Txnip (human) [1] is “binds”. Same read-out and setting: as for “Src substrate cortactin (from UniProt Q14247 1-550)”, the entry is “binds”. As for “Stress-induced phosphoprotein 1 (from UniProt P31948 1-543)”, the binding result in the assay with Myc-BirA*-Txnip (human) [1] is reported as “binds”; in assay [3], “no binding”. “TPR nucleoprotein (from UniProt P12270 1-2363)”: the binding entry with Myc-BirA*-Txnip (human) [1] is listed as “binds”. “Transcription intermediary factor 1-beta (from UniProt Q13263 1-835)”: in the assay with Myc-BirA*-Txnip (human) [1], the binding entry is “binds”. Same read-out and setting: as for “UPF0428 protein CXorf56 (from UniProt Q9H5V9 1-222)”, the entry is “binds”; as for cDNA FLJ56180 fis (from UniProt Q6ZNN8), “binds”.
